For at least one compound, name, drawing or mass did not settle the structure.
Target: T1, human B-Raf (Homo sapiens, UniProt P15056)
T1 construct: Flag; GST; made in house; host or cells: Sf9 insect cells (B-Raf); E. coli (MEK1-GST)
Assay: B-Raf Kinase to MEK1 ELISA
Format: biochemical
Conditions: single point assay
Source text: TITLE: B-Raf Kinase to MEK1 ELISA
PURPOSE: To discover B-Raf Kinase inhibitors that can inhibit growth of tumor cells which contain oncogenic forms of Receptor Tyrosine Kinases or K-Ras, or B-Raf kinase.
Reagents: Flag/GST-tagged recombinant human B-Raf produced in Sf9 insect cells, human non-active Mek-1-GST (recombinant protein produced in E. coli); and a phospho-MEK1 specific poly-clonal Ab from Cell Signaling Technology (cat. #9121).
B-Raf1 Kinase Assay Procedure:
B-Raf-1 is used to phosphorylate GST-MEK1. MEK1 phosphorylation is measured by a phospho-specific antibody (from Cell Signaling Technology, cat. #9121) that detects phosphorylation of two serine residues at positions 217 and 221 on MEK1.
B-Raf Assay Stock Solutions:
1. Assay Dilution Buffer (ADB): 20 mM MOPS, pH 7.2, 25 mM β-glycerol phosphate, 5 mM EGTA, 1 mM sodium orthovanadate, 1 mM dithiothreitol.
2. Magnesium/ATP Cocktail: 200 μM cold ATP and 40 mM magnesium chloride in ADB.
3. Active Kinase: Active B-Raf: used at ˜20 ng per assay point.
4. Non-active GST-MEK1: Use at 100 nM (50 nM final).
6. Anti-GST Ab (Pharmacia)
7. Anti-rabbit Ab/Europium conjugate (Wallac)
1. Add 25 μl of ADB containing B-Raf and Mek per assay (i.e. per well of a 96 well plate)
2. Add 25 μl of 0.2 mM ATP and 40 mM magnesium chloride in ADB.
3. Incubate for 60 minutes at RT in a shaking incubator.
4. Transfer this mixture to an anti-GST Ab coated 96 well plate (Nunc Immunosorb plates coated o/n with a-GST.
5. Incubate for 60 minutes at 30° C. in a shaking incubator
6. Wash 3× with TBST, add Anti-Phospho MEK1 (1:1000)
7. Incubate for 60 minutes at 30° C. in a shaking incubator
8. Wash 3× with TBST, add Anti-rabbit Ab/Europium conjugate (Wallac) (1:500)
9. Incubate for 60 minutes at 30° C. in a shaking incubator
10. Add 100 ul of Wallac Delfia Enhancement Solution and shake for 10 minutes.
11. Read plates in Wallac Victor model Plate Reader.
12. Collect data analyze in Excel for single point and IC50 determinations.
Typically Raf-1 assay is run at cpd concentrations from 10 μM to 30 nM in half log dilutions. (% inhibition is determined for each cpd concentration)

Protein sequences, listed by entry. Tags and fused reporters are not part of them.
UniProt P15056, whole entry: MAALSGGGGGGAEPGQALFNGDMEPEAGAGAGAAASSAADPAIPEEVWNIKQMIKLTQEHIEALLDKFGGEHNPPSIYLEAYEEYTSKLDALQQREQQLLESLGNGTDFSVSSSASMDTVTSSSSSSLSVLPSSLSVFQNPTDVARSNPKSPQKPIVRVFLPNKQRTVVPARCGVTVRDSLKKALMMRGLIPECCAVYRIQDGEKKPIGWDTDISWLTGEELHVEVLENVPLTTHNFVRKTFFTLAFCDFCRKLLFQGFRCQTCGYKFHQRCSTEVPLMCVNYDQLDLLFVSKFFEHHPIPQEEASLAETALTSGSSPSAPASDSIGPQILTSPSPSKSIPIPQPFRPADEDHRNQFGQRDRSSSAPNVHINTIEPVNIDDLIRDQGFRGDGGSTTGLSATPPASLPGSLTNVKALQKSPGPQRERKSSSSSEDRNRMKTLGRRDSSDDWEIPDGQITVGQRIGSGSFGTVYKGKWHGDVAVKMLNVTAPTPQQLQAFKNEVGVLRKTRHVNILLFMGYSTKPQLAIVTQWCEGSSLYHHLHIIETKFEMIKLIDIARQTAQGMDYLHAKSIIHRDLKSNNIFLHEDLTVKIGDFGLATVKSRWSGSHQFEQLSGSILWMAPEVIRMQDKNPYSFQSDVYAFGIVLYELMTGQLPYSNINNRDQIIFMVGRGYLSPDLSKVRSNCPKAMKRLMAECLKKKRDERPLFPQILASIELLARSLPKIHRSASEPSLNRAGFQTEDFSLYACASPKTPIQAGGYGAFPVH

Row | Compound | % Inhib./10 uM [%]
1 | O=C(Nc1cccc(-c2ccnc3cc(-c4cccnc4)nn23)c1)c1cccc(C(F)(F)F)c1 [Example 152, N-[3-(2-pyridin-3-ylpyrazolo[1,5-a]pyrimidin-7-yl)phenyl]-3-(trifluoromethyl)benzamide] | 9
2 | O=C(Nc1cccc(-c2ccnc3cc(-c4cccs4)nn23)c1)c1cccc(C(F)(F)F)c1 [Example 114, N-{3-[2-(2-thienyl)pyrazolo[1,5-a]pyrimidin-7-yl]phenyl}-3-(trifluoromethyl)benzamide] | 39
3 | O=C(Nc1cccc(-c2ccnc3cc(-c4cccc(C(F)(F)F)c4)nn23)c1)c1cccc(C(F)(F)F)c1 [Example 137, 3-(trifluoromethyl)-N-(3-{2-[3-(trifluoromethyl)phenyl]pyrazolo[1,5-a]pyrimidin-7-yl}phenyl)benzamide] | 29

— US20070219186A1, “Pyrazolo[1,5-A]pyrimidine derivatives and methods of use thereof” (priority 2006, published 2007)
